Data from ChEMBL document CHEMBL4622967, “Selective Class I HDAC Inhibitors Based on Aryl Ketone Zinc Binding Induce HIV-1 Protein for Clearance” (ACS Med Chem Lett, 2020).

Amino acid sequences for entries named in this document (tags omitted). A change or cut given only in a name is not applied to a line headed by its entry.
UniProt P56524: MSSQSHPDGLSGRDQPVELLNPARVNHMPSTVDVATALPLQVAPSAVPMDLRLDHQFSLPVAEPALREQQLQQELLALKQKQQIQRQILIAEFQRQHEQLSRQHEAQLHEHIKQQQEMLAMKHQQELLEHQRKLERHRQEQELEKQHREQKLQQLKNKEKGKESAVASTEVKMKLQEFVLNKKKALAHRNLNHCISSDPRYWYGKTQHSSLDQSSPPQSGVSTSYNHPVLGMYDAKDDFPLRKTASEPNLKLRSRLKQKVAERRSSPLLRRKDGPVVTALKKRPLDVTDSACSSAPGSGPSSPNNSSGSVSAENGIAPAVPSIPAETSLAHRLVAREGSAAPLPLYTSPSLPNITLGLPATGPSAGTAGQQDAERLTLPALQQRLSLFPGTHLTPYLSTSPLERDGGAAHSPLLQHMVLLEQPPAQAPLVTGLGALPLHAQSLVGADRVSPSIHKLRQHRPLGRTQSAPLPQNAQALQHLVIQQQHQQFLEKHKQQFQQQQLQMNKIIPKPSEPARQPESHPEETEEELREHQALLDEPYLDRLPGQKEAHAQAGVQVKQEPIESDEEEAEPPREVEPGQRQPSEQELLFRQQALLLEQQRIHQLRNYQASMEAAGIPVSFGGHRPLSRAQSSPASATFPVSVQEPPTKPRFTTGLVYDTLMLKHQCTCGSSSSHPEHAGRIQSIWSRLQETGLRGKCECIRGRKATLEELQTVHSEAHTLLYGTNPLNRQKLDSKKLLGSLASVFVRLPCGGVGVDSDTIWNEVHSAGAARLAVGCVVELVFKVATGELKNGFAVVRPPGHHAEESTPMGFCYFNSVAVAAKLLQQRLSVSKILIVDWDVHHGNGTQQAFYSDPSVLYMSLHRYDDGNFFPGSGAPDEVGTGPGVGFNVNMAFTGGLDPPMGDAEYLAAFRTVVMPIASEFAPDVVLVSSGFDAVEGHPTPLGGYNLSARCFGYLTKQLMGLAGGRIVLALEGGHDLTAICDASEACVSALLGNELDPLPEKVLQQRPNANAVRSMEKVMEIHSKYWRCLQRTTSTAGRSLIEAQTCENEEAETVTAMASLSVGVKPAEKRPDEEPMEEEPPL
UniProt Q9UQL6: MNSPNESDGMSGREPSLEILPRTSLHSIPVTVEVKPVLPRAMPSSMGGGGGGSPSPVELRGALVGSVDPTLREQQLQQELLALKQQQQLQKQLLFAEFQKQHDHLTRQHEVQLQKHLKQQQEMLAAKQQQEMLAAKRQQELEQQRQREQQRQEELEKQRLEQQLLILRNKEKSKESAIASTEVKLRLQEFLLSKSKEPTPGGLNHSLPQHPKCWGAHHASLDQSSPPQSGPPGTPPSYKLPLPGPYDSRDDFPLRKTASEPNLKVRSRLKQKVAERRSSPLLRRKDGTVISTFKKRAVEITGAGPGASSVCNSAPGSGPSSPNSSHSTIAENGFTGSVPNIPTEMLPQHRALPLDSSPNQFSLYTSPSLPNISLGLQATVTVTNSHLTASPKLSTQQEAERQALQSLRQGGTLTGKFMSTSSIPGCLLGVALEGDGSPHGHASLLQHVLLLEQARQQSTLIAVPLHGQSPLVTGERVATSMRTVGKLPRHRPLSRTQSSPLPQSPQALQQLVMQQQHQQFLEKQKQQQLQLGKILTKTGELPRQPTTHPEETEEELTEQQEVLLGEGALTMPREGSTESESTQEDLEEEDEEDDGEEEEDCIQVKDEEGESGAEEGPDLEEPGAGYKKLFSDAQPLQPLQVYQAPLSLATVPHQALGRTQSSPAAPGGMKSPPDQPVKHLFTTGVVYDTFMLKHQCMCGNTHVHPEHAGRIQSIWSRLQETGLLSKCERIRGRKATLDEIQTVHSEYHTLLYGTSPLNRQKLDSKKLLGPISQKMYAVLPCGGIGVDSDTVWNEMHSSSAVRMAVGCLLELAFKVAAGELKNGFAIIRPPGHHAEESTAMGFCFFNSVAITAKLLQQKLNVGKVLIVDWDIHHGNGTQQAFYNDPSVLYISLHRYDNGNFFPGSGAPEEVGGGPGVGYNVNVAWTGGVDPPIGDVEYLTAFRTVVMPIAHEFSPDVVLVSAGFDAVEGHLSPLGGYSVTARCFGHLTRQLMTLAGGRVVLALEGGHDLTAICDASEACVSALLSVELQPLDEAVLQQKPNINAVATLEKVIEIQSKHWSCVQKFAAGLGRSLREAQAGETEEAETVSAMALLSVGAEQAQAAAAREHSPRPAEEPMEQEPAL

Experiments:
[1] = in vitro; conditions: dog, plasma
[2] = in vivo; conditions: mouse, iv, 2 mg/kg
[3] = in vivo; conditions: dog, po, 2 mg/kg
[4] = in vitro; conditions: mouse, plasma
[5] = in vivo; conditions: dog, iv, 1 mg/kg
[6] = in vivo; conditions: dog, iv, 1 mg/kg; remark: listed apart in the source
[7] = in vivo; conditions: dog, po, 2 mg/kg; remark: listed apart in the source
[8] = in vivo; conditions: dog, po, 2 mg/kg; remark: listed apart in the source
[9] = molecular target: Histone deacetylase 4 (Homo sapiens, UniProt P56524)
[10] = in vivo; conditions: mouse, po, 10 mg/kg
[11] = in vivo; conditions: dog, iv, 1 mg/kg; remark: listed apart in the source
[12] = molecular target: T1, Histone deacetylase 11 (Homo sapiens, UniProt Q96DB2)
T1 sequence (Q96DB2 whole entry): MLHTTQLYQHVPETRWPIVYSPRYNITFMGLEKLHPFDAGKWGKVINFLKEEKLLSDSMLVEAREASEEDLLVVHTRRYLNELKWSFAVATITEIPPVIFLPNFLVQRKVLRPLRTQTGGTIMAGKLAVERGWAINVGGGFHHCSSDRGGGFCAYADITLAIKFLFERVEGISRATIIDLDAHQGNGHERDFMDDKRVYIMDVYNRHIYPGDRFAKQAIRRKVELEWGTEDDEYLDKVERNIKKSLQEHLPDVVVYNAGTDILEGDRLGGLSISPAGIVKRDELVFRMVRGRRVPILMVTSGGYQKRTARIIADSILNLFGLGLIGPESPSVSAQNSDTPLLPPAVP

[13] = in vivo; conditions: rat, po, 5 mg/kg
[14] = in vivo; conditions: mouse, iv, 2 mg/kg; remark: listed apart in the source
[15] = in vivo; conditions: rat, po, 5 mg/kg; remark: listed apart in the source
[16] = in vivo; conditions: mouse, po, 10 mg/kg; remark: listed apart in the source
[17] = in vivo; conditions: mouse, po, 10 mg/kg; remark: listed apart in the source
[18] = in vivo; conditions: rat, iv, 0.5 mg/kg
[19] = in vitro; conditions: rat, plasma
[20] = in vivo; conditions: mouse, iv, 2 mg/kg; remark: listed apart in the source
[21] = in vivo; conditions: rat, iv, 0.5 mg/kg; remark: listed apart in the source
[22] = molecular target: T2, Histone deacetylase 7 (Homo sapiens, UniProt Q8WUI4)
T2 sequence (Q8WUI4 whole entry): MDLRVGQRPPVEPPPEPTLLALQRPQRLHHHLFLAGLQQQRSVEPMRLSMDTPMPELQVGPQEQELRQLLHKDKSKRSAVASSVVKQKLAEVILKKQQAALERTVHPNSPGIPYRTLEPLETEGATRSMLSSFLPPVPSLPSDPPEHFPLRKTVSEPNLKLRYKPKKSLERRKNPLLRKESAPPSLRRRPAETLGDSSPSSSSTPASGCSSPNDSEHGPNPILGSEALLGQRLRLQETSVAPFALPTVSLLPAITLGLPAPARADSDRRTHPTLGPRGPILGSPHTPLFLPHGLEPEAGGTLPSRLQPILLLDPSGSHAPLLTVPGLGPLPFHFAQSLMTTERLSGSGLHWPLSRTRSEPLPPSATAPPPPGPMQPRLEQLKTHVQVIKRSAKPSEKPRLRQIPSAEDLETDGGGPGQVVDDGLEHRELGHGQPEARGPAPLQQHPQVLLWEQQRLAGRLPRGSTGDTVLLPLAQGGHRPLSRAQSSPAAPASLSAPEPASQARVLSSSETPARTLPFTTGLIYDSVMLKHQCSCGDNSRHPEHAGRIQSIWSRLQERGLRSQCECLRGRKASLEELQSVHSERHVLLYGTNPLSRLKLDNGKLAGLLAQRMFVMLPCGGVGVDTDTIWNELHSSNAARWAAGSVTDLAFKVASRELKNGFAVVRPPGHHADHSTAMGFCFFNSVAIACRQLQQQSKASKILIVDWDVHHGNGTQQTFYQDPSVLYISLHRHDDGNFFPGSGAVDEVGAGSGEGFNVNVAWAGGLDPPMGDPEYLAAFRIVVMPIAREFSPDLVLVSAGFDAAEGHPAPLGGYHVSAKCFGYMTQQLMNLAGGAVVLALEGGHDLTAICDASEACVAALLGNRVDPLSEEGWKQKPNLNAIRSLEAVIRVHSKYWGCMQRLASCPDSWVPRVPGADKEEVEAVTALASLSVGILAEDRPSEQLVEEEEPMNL

[23] = in vitro; conditions: human, plasma
[24] = molecular target: Histone deacetylase 5 (Homo sapiens, UniProt Q9UQL6)
[25] = in vivo; conditions: rat, po, 5 mg/kg; remark: listed apart in the source
[26] = in vivo; conditions: rat, iv, 0.5 mg/kg; remark: listed apart in the source

CN1CC(C(=O)N[C@@H](CCCCCC(=O)c2ccon2)c2ncc(-c3ccccc3F)[nH]2)C1
fraction unbound [1]: 0.088
clearance [2]: 54 mL/min/kg
bioavailability [3]: 7.2%
fraction unbound [4]: 0.038
half-life [5]: 2.3 h
Vd [6]: 1.5 L/kg
Cmax [7]: 71 nM
Tmax [8]: 0.75 h
IC50 [9]: > 50 µM
Tmax [10]: 0.25 h
clearance [11]: 61 mL/min/kg
IC50 [12]: > 50 µM
bioavailability [13]: 16%
Vd [14]: 3.9 L/kg
Tmax [15]: 0.38 h
bioavailability [16]: 18%
Cmax [17]: 480 nM
half-life [18]: 5.5 h
fraction unbound [19]: 0.114
half-life [20]: 5.2 h
Vd [21]: 37 L/kg
IC50 [22]: > 50 µM
fraction unbound [23]: 0.085
IC50 [24]: > 50 µM
Cmax [25]: 50 nM
clearance [26]: 156 mL/min/kg
